From publication doi:10.1101/2021.10.09.462405
Results are given in words; binding and its absence hold for the method and conditions named. In cells and extracts the contact can be indirect. Some entries that bind do so weakly or less than the wild type. Tags and fused reporters may be left off the sequences shown.

T1: HSPC300-eGFP (Dictyostelium discoideum) (UniProt Q54X65)
T1 sequence: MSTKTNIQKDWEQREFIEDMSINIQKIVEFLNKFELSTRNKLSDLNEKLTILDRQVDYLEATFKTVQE


Biological target: T1, HSPC300-eGFP (Dictyostelium discoideum)
Test: co-IP

Binder	binding
Pir121 (protein, UniProt Q6UK63 1-1336) MSVDPKQSKIADVFERCDVLESFPFHDDQSEIEEQSPSIGYDAYDKSLNYTDRGAYETQWSEETIGMEKMEEVLKQGDSFINMVYTYRSCSKALPTVKTAEQVNKTQIYEGNFEVLEPEIKKLKDFMYFQKDTIKLFCDHIKKLASTYDKKKETISASESFINYLVRILDLLAILDALKNMKACLNNDFSFFKRATGFLRKQMSGTEDQTQENHTLYLFLANQNSITSSLKLELHNIDKFDDILPMIVNQCADYLEQEKYILPSEKHCLLRVMPFVLFLIDENDSKHNINKNKNLNISRYAKIFKKNPVVPLYGDMQITLESLVKRSPHFDEKAWGTSTLDSKSALDYEIIHVLDQTRSLYNEYMARFANMVNEIRAAKARGPKEPLPLAESDIQAITLMGLRILSDWTSRVLQQSAWKYSKPNNDPTISATFDYERVVKFNYTKEERTALVQLIAMIKSLASLMMKSETLLQPILRKTIHQELQEFVQINLKETIKSFVKNNPKKKDNIKLEMSQLKNISVDWFSGFEPAEAVPNKKSKEVEEKVQIPARAVPPSPTQLELILTLVSSLMDKKKDFSSDQYRDFEAFSSKAFFYRYLLSLSSSIISITDLADLWYREFYLELNNRVQFPIETSLPWILTDHILESDDPSLIEHLFYPLGLYNDTAQRALLSLNQRFLYDEIEAELNLCFDQLLYKLSGKVYTHFKTQASSILLDKPYKTQLELAHFNGKLHTPKSRFDVLLRQKHITLLGRSIDLCGLLAQRQNNTIRQNLDYAISRFEACDLTSIVELETQIANIKLTHKLLSEYFDIDPFESIFNEINESTSLVSYHGRIVLHIIFELVADFAPNYTFNSITQRFIKAPYTFTEELKRDALPKTNPVFLFGNKYLNAAYANSIELYKNFIGVPHIQSILRIVGKKNLPLIVAEVLRNIEIKITNVLSPYVSELLQGMPASTKLPIYDYGTEGGYGYFQLKLKDIYIYPDLRPEVLQTFRELGNSLVFMNLLDQVITQTDSYNFAKAAPFLGITPETWKDLEPSTEDPTLQSPLYSQLQKLAQLLESRPEVAKSSQSLNDMVANAWRADKFYRPSEQNFSLFKSVLQRFSSILNIVRHDWSGAPPDNGVICVDSSTEFYRLWSALQFVICWPLSNENDKSFHELFGDGLMWAGCSLIHFLGQQYRFELFDFCYHILNVEEAAAVRSDKPALKNFFKNAQIIKDINNQIFSILNTYCPPPPPSNMILSPPATEQAEQFIVTTTVEEQSIQQQQQQQQQQQLQQSTSNSGSSLSLSAAGAPPPPPPPSTNGLPPPPPMAEYEMSSSIDDFAPPPPPPFGMPPPPPM	binds
Abi^WT (protein, UniProt Q55FT9 1-332) MSESIDINVYSQTTIPNAMAELMDNHNKMEQISAYCKSLYANGDAAQAYEQTQGYAKNALLNVAYHIQTVGTHITSLLQLQTNEMEKLNIEIQTLTQRVRMIHDSTGTNVFSNQDAAKPYKSSLKNRKVDTEATKAPVKYVHKPISYGISASDINQNGVPPPLNHSNSSANLTSSSGHLAASSTSNSSTPSYQSPSYSSQPTISSGTPPPIQKQPPRVGNAPPPPSLSVPAAPPPPVMNVPPPPPTSQRPSSVNNNAPSNDFPPPPPPSSSSSGGDLPPPPSFGLPPPPTLGDDFPPPPPPPVGSYDFPPPPARPQSQFYDHNDFPPPPPPM	binds
Abi^S3A (S166/168/169A) (protein, UniProt Q55FT9 1-332) MSESIDINVYSQTTIPNAMAELMDNHNKMEQISAYCKSLYANGDAAQAYEQTQGYAKNALLNVAYHIQTVGTHITSLLQLQTNEMEKLNIEIQTLTQRVRMIHDSTGTNVFSNQDAAKPYKSSLKNRKVDTEATKAPVKYVHKPISYGISASDINQNGVPPPLNHANAAANLTSSSGHLAASSTSNSSTPSYQSPSYSSQPTISSGTPPPIQKQPPRVGNAPPPPSLSVPAAPPPPVMNVPPPPPTSQRPSSVNNNAPSNDFPPPPPPSSSSSGGDLPPPPSFGLPPPPTLGDDFPPPPPPPVGSYDFPPPPARPQSQFYDHNDFPPPPPPM	binds
Scar (protein, UniProt Q54NF8 1-443) MVLITRYLPSVTDNNQPALEGQSKDQIVDTVITSTTVGIINQLTMLVAHSNSIFTALANDANLVTQRIEKLGSRIRPLIQSIPSIEDYHRNTSIDTMNSKPRAEFHADNSERNQHFTHASIPASINTVYEKCKPPPNLQLLDPYMDDGQKSLKLYTNPDFFMDEWVAEQQKLHEEARQRKRERREARLKKKGEKNEVEVKKVKSVTKVRYDPVTGEKITINIESPHTSSPQIQHQSNNTATPQHTTQHFGTNQYQAPPPPPLSQSSPSQQHSPINSYTPPPPPLNTSTPSPSSSFQGRPPSTGFNTPPPPMSNNNNMPPPPPMQQNGGAANNRLSVHNSAPIVAAPAPPPPPPPPSAPAPPPPPMAKAGGGASDIKPKASGARSDLLSSIMQGMALKPAEERKVAEAPKKEEALNVADILARRIAWAGDSDSSEDESDDSDWD	binds

The remaining lines, values ahead:

binding	Binder
binds	Abi^S3D (S166/168/169D) (protein, UniProt Q55FT9 1-332) MSESIDINVYSQTTIPNAMAELMDNHNKMEQISAYCKSLYANGDAAQAYEQTQGYAKNALLNVAYHIQTVGTHITSLLQLQTNEMEKLNIEIQTLTQRVRMIHDSTGTNVFSNQDAAKPYKSSLKNRKVDTEATKAPVKYVHKPISYGISASDINQNGVPPPLNHDNDDANLTSSSGHLAASSTSNSSTPSYQSPSYSSQPTISSGTPPPIQKQPPRVGNAPPPPSLSVPAAPPPPVMNVPPPPPTSQRPSSVNNNAPSNDFPPPPPPSSSSSGGDLPPPPSFGLPPPPTLGDDFPPPPPPPVGSYDFPPPPARPQSQFYDHNDFPPPPPPM
binds	Nap1 (protein, UniProt Q869Q3 1-1160) MAHTNLPEKFQVVIENGENILQRVYNTYKLFQNNKVKPSFFNDEKISKILKNLIAKYPELPENNDKSITGFDLLTSRAKQHLEELEDHYYTITDAYDWKEASFILMQEISSNTVSINFNNNIQLCSKFLDVLVLYGKINYLVSLIPDKKIITAVYAKLFLYTRSASEPTFSKMGRWINDIEQPFKKIQEEFRVLNDAVGHALSSFELTYAKRRVITQLRKDGALNLILKPEDIARPVQDSYRIELAYAGRIQQWILFGYLFAPGTLSTPQSIELLRFTLSECFYLSVFKDISISIHNEFNTLFKNYKSKTINLQKQKKIIKDAAQASTQEAPRKHAERRVYIRQELEAMWNLFRDKPCLLAPKINVLLAALSMAKEEIFWYFRHTDVIPPEKVKKFYNKQNEVREKRISSLLSLVDHLVQLVHTHKKMIQNYYLEYISGADILGLQKVITPQLLQNAGSIVTQAVNTIVNELKSLNANGQDYSFEGFRANWMRLGYLLQSNSCPLKESESKQITSRLNLIYTHSKNVDCLDQLLDEYGNMTQLWSYKEPLFHSFDAAIVDMTCDQPSHSMIYLKLLSQFPNHVANQFYPEEKELIGKECVELANSCLTKITNRIVSIMANTIASTFLSDEQQLADVNAAFPLLQKKKDWKPPKDFVPPIEPASESQFRNRANLEQLRSEEKNAFQLCTALNEFLDITIYDHIFVPREFLREKLGSALKQYMRQSIQPPAPTSSSSQIDINITRLSTYESQLRVFIGVLILVENHVDIDIGDLIRETILTEFYAKALGKSGRVDWFPEGEIEMNELTLHSITSYYVDLVSKKLNTPGVVFSPVKLGFISKAGTPFRAEEHADLTEMRALCDLVGPYGIKVIEREILRFILTTTTSMKEILSLNAANLEEFASNYYKPKAMELLKKFKTTDLDLIVTKSIAIGNALHLRSMIRESMKDVITDNFPYINNAVANAFDQYNRNTFMFPDFLGVDTLALDSGLNVGIADQYLKVILRKVSSEADKRIWELLPVMFSLTFYGNIWKETQYKATIDAHSNNVHVLSKTIIDLLIAFGAINSTTGNEAELFQSFKRFLEISSVNILRMFKGKQGEKFVPNEIQSVIIFLDKFTQQCPLLSKDSLEQYIPYSLIRNMYKDLYEHKNLQKQQSETSEQNF
